Construct, isoform or probe ends are uncertain for at least one entry. Weaker means in comparison with the reference protein, sequence or condition of that experiment. Where a protein sequence is shown, tags need not be part of it.

For this data set, the system named is T1, OxyR (Reut_A2805) (Cupriavidus pinatubonensis).
T1 sequence (looked up, limits assumed): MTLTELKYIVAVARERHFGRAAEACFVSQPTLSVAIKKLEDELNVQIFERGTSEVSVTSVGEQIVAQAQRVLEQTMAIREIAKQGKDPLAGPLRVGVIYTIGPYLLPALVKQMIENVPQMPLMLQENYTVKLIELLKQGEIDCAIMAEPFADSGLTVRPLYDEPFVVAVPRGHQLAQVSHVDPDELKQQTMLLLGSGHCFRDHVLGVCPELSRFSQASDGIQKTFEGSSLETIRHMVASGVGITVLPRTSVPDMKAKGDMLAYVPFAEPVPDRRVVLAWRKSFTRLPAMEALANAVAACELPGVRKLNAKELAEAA
The data set is described as follows: EMSA. As to conditions: DTT-treated OxyR, binding decreased as DTT increased; EMSA: 20 mM Tris pH 7.4, 4 mM MgCl2, 100 mM NaCl, 10% glycerol; 20 min at room temperature; 6% native PAGE with 5% glycerol in 0.5x TBE; recombinant protein; protein details: N-terminal His6 (pET28a); label: none (SYBR Green stain); probe letters rebuilt from the primers and the genome. In general terms: Mobility shift assays separate free from complexed probe on a gel.

Turning to “AAATGCATCGCTCTCAGAATACCCAAAAATGAGCAATTCGATGCCATCGACTTTCGCGTTTCTGGCAACTTTGCGCGAACTGTAGAAAATACCGGATTACAGGTATTGTCCTGTCCAAGTCGCACAGCGTAAATTTCGCCTGACTTCCGTTGCGCAACCAACAGAAACACAAAGATT (double strand) [PT6SS1]”, the binding result was “binds more weakly”.

The record behind these values is publication PMC10846153.
